{"source": "the supplement of paper PMC11546906", "note": "Counter-ions that a name gives are not always drawn. This is one part of the list. Repeats in this data set agree poorly, so a single value says little.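 A screen tested FDA-approved drugs combined with one-eighth-MIC colistin against a clinical mcr-1-positive, multidrug-resistant E. coli isolate, measuring OD600 at 24 h. Controls were untreated bacteria (growth) and broth alone (blank). An OD600 under 0.2 marked a combination as active.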", "data": [{"tested_on": "Escherichia coli 42 (mcr-1-positive clinical isolate)", "experiment": "OD600 after 24 h growth with compound plus colistin (absorbance units (OD600)); higher = more bacterial growth (less inhibition)", "settings": "first compound 25 µM; colistin concentration 0.5 ug/mL; incubation time 24 h; 37 °C", "values": [{"smiles": "Cc1cc(Nc2ncnc3ccc(NC4=NC(C)(C)CO4)cc23)ccc1Oc1ccn2ncnc2c1", "note": "[Tucatinib] + CCC(C)CCCC(=O)N[C@@H](CCN)C(=O)N[C@H](C(=O)N[C@@H](CCN)C(=O)N[C@H]1CCNC(=O)[C@H]([C@@H](C)O)NC(=O)[C@H](CCN)NC(=O)[C@H](CCN)NC(=O)[C@H](CC(C)C)NC(=O)[C@@H](CC(C)C)NC(=O)[C@H](CCN)NC1=O)[C@@H](C)O [colistin]", "OD600": "inactive: 0.995"}, {"smiles": "C[C@]12CC[C@H](O)CC1=CC[C@@H]1[C@@H]2CC[C@]2(C)C(c3cccnc3)=CC[C@@H]12", "note": "[Abiraterone] + CCC(C)CCCC(=O)N[C@@H](CCN)C(=O)N[C@H](C(=O)N[C@@H](CCN)C(=O)N[C@H]1CCNC(=O)[C@H]([C@@H](C)O)NC(=O)[C@H](CCN)NC(=O)[C@H](CCN)NC(=O)[C@H](CC(C)C)NC(=O)[C@@H](CC(C)C)NC(=O)[C@H](CCN)NC1=O)[C@@H](C)O [colistin]", "OD600": "inactive: 1.08"}, {"smiles": "CN(C)CCC=C1c2ccccc2CCc2ccccc21", "note": "[Amitriptyline hydrochloride] + CCC(C)CCCC(=O)N[C@@H](CCN)C(=O)N[C@H](C(=O)N[C@@H](CCN)C(=O)N[C@H]1CCNC(=O)[C@H]([C@@H](C)O)NC(=O)[C@H](CCN)NC(=O)[C@H](CCN)NC(=O)[C@H](CC(C)C)NC(=O)[C@@H](CC(C)C)NC(=O)[C@H](CCN)NC1=O)[C@@H](C)O [colistin]", "OD600": "inactive: 1.04"}, {"smiles": "CC1(C)O[C@@H]2[C@@H](CO[C@@]3(COS(N)(=O)=O)OC(C)(C)O[C@@H]23)O1", "note": "[Topiramate] + CCC(C)CCCC(=O)N[C@@H](CCN)C(=O)N[C@H](C(=O)N[C@@H](CCN)C(=O)N[C@H]1CCNC(=O)[C@H]([C@@H](C)O)NC(=O)[C@H](CCN)NC(=O)[C@H](CCN)NC(=O)[C@H](CC(C)C)NC(=O)[C@@H](CC(C)C)NC(=O)[C@H](CCN)NC1=O)[C@@H](C)O [colistin]", "OD600": "inactive: 1.09"}, {"smiles": "Cc1cccc(Nc2ccncc2S(=O)(=O)NC(=O)NC(C)C)c1", "note": "[Torsemide] + CCC(C)CCCC(=O)N[C@@H](CCN)C(=O)N[C@H](C(=O)N[C@@H](CCN)C(=O)N[C@H]1CCNC(=O)[C@H]([C@@H](C)O)NC(=O)[C@H](CCN)NC(=O)[C@H](CCN)NC(=O)[C@H](CC(C)C)NC(=O)[C@@H](CC(C)C)NC(=O)[C@H](CCN)NC1=O)[C@@H](C)O [colistin]", "OD600": "inactive: 0.769"}, {"smiles": "O=C(O[C@@H]1C[C@@H]2C[C@H]3C[C@H](C1)N2CC3=O)c1c[nH]c2ccccc12", "note": "[Dolasetron Mesylate hydrate] + CCC(C)CCCC(=O)N[C@@H](CCN)C(=O)N[C@H](C(=O)N[C@@H](CCN)C(=O)N[C@H]1CCNC(=O)[C@H]([C@@H](C)O)NC(=O)[C@H](CCN)NC(=O)[C@H](CCN)NC(=O)[C@H](CC(C)C)NC(=O)[C@@H](CC(C)C)NC(=O)[C@H](CCN)NC1=O)[C@@H](C)O [colistin]", "OD600": "inactive: 0.984"}, {"smiles": "Nc1cccc2c1C(=O)N(C1CCC(=O)NC1=O)C2=O", "note": "(configuration not stated) [Pomalidomide] + CCC(C)CCCC(=O)N[C@@H](CCN)C(=O)N[C@H](C(=O)N[C@@H](CCN)C(=O)N[C@H]1CCNC(=O)[C@H]([C@@H](C)O)NC(=O)[C@H](CCN)NC(=O)[C@H](CCN)NC(=O)[C@H](CC(C)C)NC(=O)[C@@H](CC(C)C)NC(=O)[C@H](CCN)NC1=O)[C@@H](C)O [colistin]", "OD600": "inactive: 1.07"}, {"smiles": "CC1(C)S[C@@H]2[C@H](NC(=O)Cc3ccccc3)C(=O)N2[C@H]1C(=O)O", "note": "[Penicillin G sodium salt] + CCC(C)CCCC(=O)N[C@@H](CCN)C(=O)N[C@H](C(=O)N[C@@H](CCN)C(=O)N[C@H]1CCNC(=O)[C@H]([C@@H](C)O)NC(=O)[C@H](CCN)NC(=O)[C@H](CCN)NC(=O)[C@H](CC(C)C)NC(=O)[C@@H](CC(C)C)NC(=O)[C@H](CCN)NC1=O)[C@@H](C)O [colistin]", "OD600": "inactive: 0.995"}, {"smiles": "N=C(NCCCCCCNC(=N)NC(=N)Nc1ccc(Cl)cc1)NC(=N)Nc1ccc(Cl)cc1", "note": "[Chlorhexidine dihydrochloride] + CCC(C)CCCC(=O)N[C@@H](CCN)C(=O)N[C@H](C(=O)N[C@@H](CCN)C(=O)N[C@H]1CCNC(=O)[C@H]([C@@H](C)O)NC(=O)[C@H](CCN)NC(=O)[C@H](CCN)NC(=O)[C@H](CC(C)C)NC(=O)[C@@H](CC(C)C)NC(=O)[C@H](CCN)NC1=O)[C@@H](C)O [colistin]", "OD600": "active: 0.039"}, {"smiles": "COc1cc2c(cc1OC)CC(=O)N(CCCN(C)C[C@H]1Cc3cc(OC)c(OC)cc31)CC2", "note": "[Ivabradine hydrochloride] + CCC(C)CCCC(=O)N[C@@H](CCN)C(=O)N[C@H](C(=O)N[C@@H](CCN)C(=O)N[C@H]1CCNC(=O)[C@H]([C@@H](C)O)NC(=O)[C@H](CCN)NC(=O)[C@H](CCN)NC(=O)[C@H](CC(C)C)NC(=O)[C@@H](CC(C)C)NC(=O)[C@H](CCN)NC1=O)[C@@H](C)O [colistin]", "OD600": "inactive: 0.957"}, {"smiles": "C[C@H](CCC(=O)O)[C@H]1CC[C@H]2[C@@H]3CC[C@@H]4C[C@H](O)CC[C@]4(C)[C@H]3CC[C@]12C", "note": "[Lithocholic acid] + CCC(C)CCCC(=O)N[C@@H](CCN)C(=O)N[C@H](C(=O)N[C@@H](CCN)C(=O)N[C@H]1CCNC(=O)[C@H]([C@@H](C)O)NC(=O)[C@H](CCN)NC(=O)[C@H](CCN)NC(=O)[C@H](CC(C)C)NC(=O)[C@@H](CC(C)C)NC(=O)[C@H](CCN)NC1=O)[C@@H](C)O [colistin]", "OD600": "inactive: 0.817"}, {"smiles": "CN[C@@H]1[C@H](O)[C@H](NC)[C@H]2O[C@@]3(O)C(=O)C[C@@H](C)O[C@H]3O[C@@H]2[C@H]1O", "note": "[Spectinomycin dihydrochloride] + CCC(C)CCCC(=O)N[C@@H](CCN)C(=O)N[C@H](C(=O)N[C@@H](CCN)C(=O)N[C@H]1CCNC(=O)[C@H]([C@@H](C)O)NC(=O)[C@H](CCN)NC(=O)[C@H](CCN)NC(=O)[C@H](CC(C)C)NC(=O)[C@@H](CC(C)C)NC(=O)[C@H](CCN)NC1=O)[C@@H](C)O [colistin]", "OD600": "inactive: 1.11"}]}]}
